# Measured values reported in the supplement of paper PMC8728848.
# This is one part of the list.
# B1: SLLPI (Homo sapiens), Q8IXA5 (protein)
# chain: MVSALRGAPLIRVHSSPVSSPSVSGPRRLVSCLSSQSSALSQSGGGSTSAAGIEARSRALRRRWCPAGIMLLALVCLLSCLLPSSEAKLYGRCELARVLHDFGLDGYRGYSLADWVCLAYFTSGFNAAALDYEADGSTNNGIFQINSRRWCSNLTPNVPNVCRMYCSDLLNPNLKDTVICAMKITQEPQGLGYWEAWRHHCQGKDLTEWVDGCDF
# Assays:
# Assay in all cases: glycan array binding signal (z-score within array); higher = stronger binding
# Conditions in all cases: glycan notation: IUPAC condensed, linker removed
# Gal3S(b1-4)Glc6S = biological target: Gal3S(b1-4)Glc6S
# Outline: (§1)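 Arrays were curated from the Consortium for Functional Glycomics database, 3228 in total, and kept only where the protein sequence was available. Binding is expressed as a within-array Z-score. This score was averaged across arrays of the same protein sequence at different concentrations or buffers and across linkers, and negative values can be read as non-binding.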
# Gal3S(b1-4)GlcNAc = biological target: Gal3S(b1-4)GlcNAc
# Outline: as §1
# Gal3S(b1-4)GlcNAc6S = biological target: Gal3S(b1-4)GlcNAc6S
# Outline: as §1
# [1] = biological target: Gal3S(b1-4)[Fuc(a1-3)]Glc
# Outline: as §1
# Gal3S4S(b1-4)GlcNAc = biological target: Gal3S4S(b1-4)GlcNAc
# Outline: as §1
# Gal3S6S(b1-4)GlcNAc = biological target: Gal3S6S(b1-4)GlcNAc
# Outline: as §1
# Gal3S6S(b1-4)GlcNAc6S = biological target: Gal3S6S(b1-4)GlcNAc6S
# Outline: as §1
# Gal4S(b1-4)GlcNAc = biological target: Gal4S(b1-4)GlcNAc
# Outline: as §1
# Gal4S6S(b1-4)GlcNAc = biological target: Gal4S6S(b1-4)GlcNAc
# Outline: as §1
# Gal6S(b1-4)Glc = biological target: Gal6S(b1-4)Glc
# Outline: as §1
# Gal6S(b1-4)Glc6S = biological target: Gal6S(b1-4)Glc6S
# Outline: as §1
# Gal6S(b1-4)GlcNAc = biological target: Gal6S(b1-4)GlcNAc
# Outline: as §1
# Gal6S(b1-4)GlcNAc6S = biological target: Gal6S(b1-4)GlcNAc6S
# Outline: as §1
# GalNAc(a1-3)Gal = biological target: GalNAc(a1-3)Gal
# Outline: as §1
# GalNAc(a1-3)GalNAc = biological target: GalNAc(a1-3)GalNAc
# Outline: as §1
# GalNAc(b1-3)Gal = biological target: GalNAc(b1-3)Gal
# Outline: as §1
# [2] = biological target: GalNAc(b1-3)Gal(a1-4)Gal(b1-4)GlcNAc
# Outline: as §1
# GalNAc(b1-3)GalNAc = biological target: GalNAc(b1-3)GalNAc
# Outline: as §1
# GalNAc(b1-4)GlcNAc = biological target: GalNAc(b1-4)GlcNAc
# Outline: as §1
# Glc(a1-4)Glc = biological target: Glc(a1-4)Glc
# Outline: as §1
# Glc(a1-6)Glc(a1-6)Glc = biological target: Glc(a1-6)Glc(a1-6)Glc
# Outline: as §1
# Glc(b1-4)Glc = biological target: Glc(b1-4)Glc
# Outline: as §1
# Glc(b1-6)Glc = biological target: Glc(b1-6)Glc
# Outline: as §1
# GlcA(b1-3)Gal = biological target: GlcA(b1-3)Gal
# Outline: as §1
# GlcA(b1-3)GlcNAc = biological target: GlcA(b1-3)GlcNAc
# Outline: as §1
# GlcA(b1-6)Gal = biological target: GlcA(b1-6)Gal
# Outline: as §1
# [3] = biological target: GlcNAc(a1-3)Gal(b1-4)GlcNAc
# Outline: as §1
# [4] = biological target: GlcNAc(a1-6)Gal(b1-4)GlcNAc
# Outline: as §1
# [5] = biological target: GlcNAc(b1-2)Gal(b1-3)GalNAc
# Outline: as §1
# [6] = biological target: GlcNAc(b1-2)Man(a1-3)[GlcNAc(b1-2)Man(a1-6)]Man(b1-4)GlcNAc(b1-4)GlcNAc
# Outline: as §1
# GlcNAc(b1-3)Gal = biological target: GlcNAc(b1-3)Gal
# Outline: as §1
# [7] = biological target: GlcNAc(b1-3)Gal(b1-3)GalNAc
# Outline: as §1
# GlcNAc(b1-3)Gal(b1-4)Glc = biological target: GlcNAc(b1-3)Gal(b1-4)Glc
# Outline: as §1
# [8] = biological target: GlcNAc(b1-3)Gal(b1-4)GlcNAc
# Outline: as §1
# [9] = biological target: GlcNAc(b1-3)Gal(b1-4)GlcNAc(b1-3)Gal(b1-4)GlcNAc
# Outline: as §1
# GlcNAc(b1-3)GalNAc = biological target: GlcNAc(b1-3)GalNAc
# Outline: as §1
# GlcNAc(b1-3)Man = biological target: GlcNAc(b1-3)Man
# Outline: as §1
# [10] = biological target: GlcNAc(b1-3)[GlcNAc(b1-4)][GlcNAc(b1-6)]GlcNAc
# Outline: as §1
# [11] = biological target: GlcNAc(b1-3)[GlcNAc(b1-6)]Gal(b1-4)GlcNAc
# Outline: as §1
# [12] = biological target: GlcNAc(b1-3)[GlcNAc(b1-6)]GalNAc
# Outline: as §1
# [13] = biological target: GlcNAc(b1-4)Gal(b1-4)GlcNAc
# Outline: as §1
# GlcNAc(b1-4)GlcNAc = biological target: GlcNAc(b1-4)GlcNAc
# Outline: as §1
# [14] = biological target: GlcNAc(b1-4)GlcNAc(b1-4)GlcNAc
# Outline: as §1
# [15] = biological target: GlcNAc(b1-4)GlcNAc(b1-4)GlcNAc(b1-4)GlcNAc(b1-4)GlcNAc
# Outline: as §1
# [16] = biological target: GlcNAc(b1-4)GlcNAc(b1-4)GlcNAc(b1-4)GlcNAc(b1-4)GlcNAc(b1-4)GlcNAc
# Outline: as §1
binder,measurement,setting,value
B1,glycan array binding signal (z-score),Gal3S(b1-4)Glc6S,0.272
same,glycan array binding signal (z-score),Gal3S(b1-4)GlcNAc,0.044
same,glycan array binding signal (z-score),Gal3S(b1-4)GlcNAc6S,0.416
same,glycan array binding signal (z-score),[1],0.403
same,glycan array binding signal (z-score),Gal3S4S(b1-4)GlcNAc,-0.255
same,glycan array binding signal (z-score),Gal3S6S(b1-4)GlcNAc,0.028
same,glycan array binding signal (z-score),Gal3S6S(b1-4)GlcNAc6S,0.334
same,glycan array binding signal (z-score),Gal4S(b1-4)GlcNAc,-0.196
same,glycan array binding signal (z-score),Gal4S6S(b1-4)GlcNAc,0.335
same,glycan array binding signal (z-score),Gal6S(b1-4)Glc,0.112
same,glycan array binding signal (z-score),Gal6S(b1-4)Glc6S,1.85
same,glycan array binding signal (z-score),Gal6S(b1-4)GlcNAc,1.22
same,glycan array binding signal (z-score),Gal6S(b1-4)GlcNAc6S,0.081
same,glycan array binding signal (z-score),GalNAc(a1-3)Gal,1.65
same,glycan array binding signal (z-score),GalNAc(a1-3)GalNAc,-0.083
same,glycan array binding signal (z-score),GalNAc(b1-3)Gal,1.36
same,glycan array binding signal (z-score),[2],0.309
same,glycan array binding signal (z-score),GalNAc(b1-3)GalNAc,0.062
same,glycan array binding signal (z-score),GalNAc(b1-4)GlcNAc,0.15
same,glycan array binding signal (z-score),Glc(a1-4)Glc,-0.422
same,glycan array binding signal (z-score),Glc(a1-6)Glc(a1-6)Glc,-0.263
same,glycan array binding signal (z-score),Glc(b1-4)Glc,-0.191
same,glycan array binding signal (z-score),Glc(b1-6)Glc,-0.514
same,glycan array binding signal (z-score),GlcA(b1-3)Gal,0.192
same,glycan array binding signal (z-score),GlcA(b1-3)GlcNAc,0.16
same,glycan array binding signal (z-score),GlcA(b1-6)Gal,-0.073
same,glycan array binding signal (z-score),[3],-0.149
same,glycan array binding signal (z-score),[4],0.288
same,glycan array binding signal (z-score),[5],-0.634
same,glycan array binding signal (z-score),[6],-0.026
same,glycan array binding signal (z-score),GlcNAc(b1-3)Gal,0.2
same,glycan array binding signal (z-score),[7],-0.138
same,glycan array binding signal (z-score),GlcNAc(b1-3)Gal(b1-4)Glc,0.579
same,glycan array binding signal (z-score),[8],-0.119
same,glycan array binding signal (z-score),[9],-0.184
same,glycan array binding signal (z-score),GlcNAc(b1-3)GalNAc,0.269
same,glycan array binding signal (z-score),GlcNAc(b1-3)Man,-0.462
same,glycan array binding signal (z-score),[10],-0.048
same,glycan array binding signal (z-score),[11],0.15
same,glycan array binding signal (z-score),[12],-0.443
same,glycan array binding signal (z-score),[13],-0.568
same,glycan array binding signal (z-score),GlcNAc(b1-4)GlcNAc,0.001
same,glycan array binding signal (z-score),[14],0.949
same,glycan array binding signal (z-score),[15],-0.259
same,glycan array binding signal (z-score),[16],-0.307

# A portion from the list above:
binder,measurement,setting,value
B1,glycan array binding signal (z-score),Gal4S6S(b1-4)GlcNAc,0.335
same,glycan array binding signal (z-score),Gal6S(b1-4)Glc,0.112
